Measured values: the supplement of paper PMC11006884
This list holds what a sample rich in targets with a hit left over. Single values of this set are uncertain. This is a selection; strong and weak results do not stand in their true shares.

Protein sequences, listed by entry. Tags and fused reporters are not part of them. Lines headed by an entry give the natural chain unless they say otherwise; changes in a name come on top.
UniProt Q96F63: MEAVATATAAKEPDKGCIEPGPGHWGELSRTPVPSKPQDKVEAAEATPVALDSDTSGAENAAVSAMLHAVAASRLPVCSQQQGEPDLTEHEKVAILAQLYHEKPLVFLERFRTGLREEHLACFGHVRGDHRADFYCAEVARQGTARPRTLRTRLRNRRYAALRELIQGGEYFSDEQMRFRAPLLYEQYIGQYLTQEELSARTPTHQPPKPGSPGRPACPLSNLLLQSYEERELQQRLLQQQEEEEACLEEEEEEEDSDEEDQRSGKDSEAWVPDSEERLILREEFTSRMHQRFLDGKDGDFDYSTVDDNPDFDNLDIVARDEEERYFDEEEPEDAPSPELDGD
UniProt Q96GX5: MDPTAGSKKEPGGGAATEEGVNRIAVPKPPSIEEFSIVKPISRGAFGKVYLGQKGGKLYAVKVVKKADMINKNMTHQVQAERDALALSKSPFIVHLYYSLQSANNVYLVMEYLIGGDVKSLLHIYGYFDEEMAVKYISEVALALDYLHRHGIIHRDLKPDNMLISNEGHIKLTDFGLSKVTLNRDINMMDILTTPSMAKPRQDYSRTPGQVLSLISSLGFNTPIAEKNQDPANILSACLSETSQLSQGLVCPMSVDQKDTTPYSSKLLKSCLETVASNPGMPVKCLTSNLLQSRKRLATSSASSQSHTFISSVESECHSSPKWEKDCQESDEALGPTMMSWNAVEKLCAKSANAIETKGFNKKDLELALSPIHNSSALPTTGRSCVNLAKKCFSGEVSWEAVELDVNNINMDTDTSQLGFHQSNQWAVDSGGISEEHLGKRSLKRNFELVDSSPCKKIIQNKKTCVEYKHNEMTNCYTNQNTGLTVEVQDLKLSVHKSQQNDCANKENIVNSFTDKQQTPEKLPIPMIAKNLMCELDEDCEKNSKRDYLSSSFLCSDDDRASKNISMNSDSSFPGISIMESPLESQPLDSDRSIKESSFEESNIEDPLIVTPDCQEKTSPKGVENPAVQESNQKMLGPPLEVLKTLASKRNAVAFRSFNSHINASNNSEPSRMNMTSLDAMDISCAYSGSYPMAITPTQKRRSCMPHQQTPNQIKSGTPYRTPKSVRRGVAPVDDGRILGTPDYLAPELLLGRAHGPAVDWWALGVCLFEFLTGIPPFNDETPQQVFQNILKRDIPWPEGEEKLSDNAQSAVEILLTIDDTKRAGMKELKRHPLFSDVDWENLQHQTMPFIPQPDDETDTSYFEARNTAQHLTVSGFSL
UniProt Q92786: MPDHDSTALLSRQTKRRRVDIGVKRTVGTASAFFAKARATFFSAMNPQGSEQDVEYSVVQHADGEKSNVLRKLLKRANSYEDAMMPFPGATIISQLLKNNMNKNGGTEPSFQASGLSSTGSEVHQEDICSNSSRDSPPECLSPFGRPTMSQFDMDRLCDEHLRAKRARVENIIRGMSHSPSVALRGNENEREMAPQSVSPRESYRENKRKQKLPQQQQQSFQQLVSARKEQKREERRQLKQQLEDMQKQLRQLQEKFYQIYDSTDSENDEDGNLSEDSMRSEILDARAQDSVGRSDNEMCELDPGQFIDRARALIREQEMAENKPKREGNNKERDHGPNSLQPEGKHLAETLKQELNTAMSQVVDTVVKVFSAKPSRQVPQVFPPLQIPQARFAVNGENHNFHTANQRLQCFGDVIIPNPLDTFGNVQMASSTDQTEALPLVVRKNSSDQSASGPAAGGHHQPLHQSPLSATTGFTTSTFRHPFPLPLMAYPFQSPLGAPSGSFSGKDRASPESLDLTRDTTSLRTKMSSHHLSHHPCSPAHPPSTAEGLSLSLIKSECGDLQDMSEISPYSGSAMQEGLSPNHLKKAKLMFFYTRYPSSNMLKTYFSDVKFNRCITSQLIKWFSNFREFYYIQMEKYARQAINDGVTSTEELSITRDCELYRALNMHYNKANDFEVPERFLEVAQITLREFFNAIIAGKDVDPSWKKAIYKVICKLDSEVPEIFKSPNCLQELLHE
UniProt Q92878: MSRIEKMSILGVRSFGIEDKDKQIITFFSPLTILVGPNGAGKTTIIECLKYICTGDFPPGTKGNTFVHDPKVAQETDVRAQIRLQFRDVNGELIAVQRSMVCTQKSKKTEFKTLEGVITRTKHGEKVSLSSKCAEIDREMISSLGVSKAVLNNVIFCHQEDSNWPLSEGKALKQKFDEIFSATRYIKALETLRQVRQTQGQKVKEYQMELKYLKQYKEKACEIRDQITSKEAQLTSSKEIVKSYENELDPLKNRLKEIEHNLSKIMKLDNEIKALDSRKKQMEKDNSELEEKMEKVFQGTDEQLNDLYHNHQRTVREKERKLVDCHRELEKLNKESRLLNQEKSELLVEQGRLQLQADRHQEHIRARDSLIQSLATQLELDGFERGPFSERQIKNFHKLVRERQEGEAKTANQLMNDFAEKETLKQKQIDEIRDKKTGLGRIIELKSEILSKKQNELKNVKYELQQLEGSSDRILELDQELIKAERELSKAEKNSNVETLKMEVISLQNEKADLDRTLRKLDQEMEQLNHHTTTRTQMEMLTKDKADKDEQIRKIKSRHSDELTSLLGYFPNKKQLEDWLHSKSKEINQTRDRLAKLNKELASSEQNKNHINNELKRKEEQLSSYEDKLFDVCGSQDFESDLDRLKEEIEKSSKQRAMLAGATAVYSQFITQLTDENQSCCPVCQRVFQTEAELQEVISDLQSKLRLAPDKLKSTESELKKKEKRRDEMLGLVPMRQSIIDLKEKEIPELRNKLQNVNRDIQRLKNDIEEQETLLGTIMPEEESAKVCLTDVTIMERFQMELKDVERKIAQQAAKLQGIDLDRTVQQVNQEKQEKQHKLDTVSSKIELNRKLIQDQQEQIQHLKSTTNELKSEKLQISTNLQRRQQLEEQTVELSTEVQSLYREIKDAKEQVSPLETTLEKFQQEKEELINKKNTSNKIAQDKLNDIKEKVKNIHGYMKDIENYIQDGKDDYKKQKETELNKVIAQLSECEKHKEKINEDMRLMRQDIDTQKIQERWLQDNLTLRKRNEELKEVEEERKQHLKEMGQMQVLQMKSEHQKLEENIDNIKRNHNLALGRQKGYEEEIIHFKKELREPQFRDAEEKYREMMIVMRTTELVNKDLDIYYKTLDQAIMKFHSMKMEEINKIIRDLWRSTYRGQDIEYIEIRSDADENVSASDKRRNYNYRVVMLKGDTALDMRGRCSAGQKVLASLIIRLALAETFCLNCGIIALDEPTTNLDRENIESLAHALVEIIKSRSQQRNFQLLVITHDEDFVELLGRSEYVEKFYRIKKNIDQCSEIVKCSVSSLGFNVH
UniProt Q96HJ9: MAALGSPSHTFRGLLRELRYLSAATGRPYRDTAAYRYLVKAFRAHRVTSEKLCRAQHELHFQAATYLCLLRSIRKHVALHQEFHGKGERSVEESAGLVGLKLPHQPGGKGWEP
UniProt Q96C19: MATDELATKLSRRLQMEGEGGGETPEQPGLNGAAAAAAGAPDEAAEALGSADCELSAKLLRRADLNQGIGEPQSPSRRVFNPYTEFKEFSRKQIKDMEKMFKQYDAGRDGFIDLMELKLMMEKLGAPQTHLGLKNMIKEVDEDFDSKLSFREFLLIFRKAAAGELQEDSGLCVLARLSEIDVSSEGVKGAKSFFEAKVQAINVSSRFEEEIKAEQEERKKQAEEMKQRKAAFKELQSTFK
UniProt Q969T7: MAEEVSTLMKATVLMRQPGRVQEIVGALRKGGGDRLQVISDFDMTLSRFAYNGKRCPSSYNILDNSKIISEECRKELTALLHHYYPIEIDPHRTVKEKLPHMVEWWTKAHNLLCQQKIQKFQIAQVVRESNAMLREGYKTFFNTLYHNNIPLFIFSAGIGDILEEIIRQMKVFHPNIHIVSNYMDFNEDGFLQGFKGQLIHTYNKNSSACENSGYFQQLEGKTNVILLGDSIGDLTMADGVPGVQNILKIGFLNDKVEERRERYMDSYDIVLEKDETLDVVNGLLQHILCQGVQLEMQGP
UniProt Q96CS3: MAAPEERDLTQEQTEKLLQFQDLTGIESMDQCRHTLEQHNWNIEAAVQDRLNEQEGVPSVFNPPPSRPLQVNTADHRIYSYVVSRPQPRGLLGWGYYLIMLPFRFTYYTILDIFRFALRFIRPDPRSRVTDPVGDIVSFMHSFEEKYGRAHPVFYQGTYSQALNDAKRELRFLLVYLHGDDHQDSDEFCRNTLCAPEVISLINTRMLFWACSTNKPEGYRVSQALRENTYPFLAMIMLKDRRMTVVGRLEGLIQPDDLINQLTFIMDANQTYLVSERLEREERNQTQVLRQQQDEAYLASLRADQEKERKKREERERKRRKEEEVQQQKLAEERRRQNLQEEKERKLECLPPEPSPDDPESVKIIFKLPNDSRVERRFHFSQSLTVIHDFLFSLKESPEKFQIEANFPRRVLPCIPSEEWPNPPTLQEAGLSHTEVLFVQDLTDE
UniProt Q96AG4: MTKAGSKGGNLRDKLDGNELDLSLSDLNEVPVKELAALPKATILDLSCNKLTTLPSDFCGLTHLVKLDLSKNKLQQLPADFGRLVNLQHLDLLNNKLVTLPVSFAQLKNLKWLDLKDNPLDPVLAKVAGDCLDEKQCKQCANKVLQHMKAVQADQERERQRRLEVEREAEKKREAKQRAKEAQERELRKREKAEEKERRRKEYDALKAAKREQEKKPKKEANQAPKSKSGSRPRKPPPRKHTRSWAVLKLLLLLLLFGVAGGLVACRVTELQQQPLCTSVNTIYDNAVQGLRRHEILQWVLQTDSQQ
UniProt Q92538, whole entry, looked up: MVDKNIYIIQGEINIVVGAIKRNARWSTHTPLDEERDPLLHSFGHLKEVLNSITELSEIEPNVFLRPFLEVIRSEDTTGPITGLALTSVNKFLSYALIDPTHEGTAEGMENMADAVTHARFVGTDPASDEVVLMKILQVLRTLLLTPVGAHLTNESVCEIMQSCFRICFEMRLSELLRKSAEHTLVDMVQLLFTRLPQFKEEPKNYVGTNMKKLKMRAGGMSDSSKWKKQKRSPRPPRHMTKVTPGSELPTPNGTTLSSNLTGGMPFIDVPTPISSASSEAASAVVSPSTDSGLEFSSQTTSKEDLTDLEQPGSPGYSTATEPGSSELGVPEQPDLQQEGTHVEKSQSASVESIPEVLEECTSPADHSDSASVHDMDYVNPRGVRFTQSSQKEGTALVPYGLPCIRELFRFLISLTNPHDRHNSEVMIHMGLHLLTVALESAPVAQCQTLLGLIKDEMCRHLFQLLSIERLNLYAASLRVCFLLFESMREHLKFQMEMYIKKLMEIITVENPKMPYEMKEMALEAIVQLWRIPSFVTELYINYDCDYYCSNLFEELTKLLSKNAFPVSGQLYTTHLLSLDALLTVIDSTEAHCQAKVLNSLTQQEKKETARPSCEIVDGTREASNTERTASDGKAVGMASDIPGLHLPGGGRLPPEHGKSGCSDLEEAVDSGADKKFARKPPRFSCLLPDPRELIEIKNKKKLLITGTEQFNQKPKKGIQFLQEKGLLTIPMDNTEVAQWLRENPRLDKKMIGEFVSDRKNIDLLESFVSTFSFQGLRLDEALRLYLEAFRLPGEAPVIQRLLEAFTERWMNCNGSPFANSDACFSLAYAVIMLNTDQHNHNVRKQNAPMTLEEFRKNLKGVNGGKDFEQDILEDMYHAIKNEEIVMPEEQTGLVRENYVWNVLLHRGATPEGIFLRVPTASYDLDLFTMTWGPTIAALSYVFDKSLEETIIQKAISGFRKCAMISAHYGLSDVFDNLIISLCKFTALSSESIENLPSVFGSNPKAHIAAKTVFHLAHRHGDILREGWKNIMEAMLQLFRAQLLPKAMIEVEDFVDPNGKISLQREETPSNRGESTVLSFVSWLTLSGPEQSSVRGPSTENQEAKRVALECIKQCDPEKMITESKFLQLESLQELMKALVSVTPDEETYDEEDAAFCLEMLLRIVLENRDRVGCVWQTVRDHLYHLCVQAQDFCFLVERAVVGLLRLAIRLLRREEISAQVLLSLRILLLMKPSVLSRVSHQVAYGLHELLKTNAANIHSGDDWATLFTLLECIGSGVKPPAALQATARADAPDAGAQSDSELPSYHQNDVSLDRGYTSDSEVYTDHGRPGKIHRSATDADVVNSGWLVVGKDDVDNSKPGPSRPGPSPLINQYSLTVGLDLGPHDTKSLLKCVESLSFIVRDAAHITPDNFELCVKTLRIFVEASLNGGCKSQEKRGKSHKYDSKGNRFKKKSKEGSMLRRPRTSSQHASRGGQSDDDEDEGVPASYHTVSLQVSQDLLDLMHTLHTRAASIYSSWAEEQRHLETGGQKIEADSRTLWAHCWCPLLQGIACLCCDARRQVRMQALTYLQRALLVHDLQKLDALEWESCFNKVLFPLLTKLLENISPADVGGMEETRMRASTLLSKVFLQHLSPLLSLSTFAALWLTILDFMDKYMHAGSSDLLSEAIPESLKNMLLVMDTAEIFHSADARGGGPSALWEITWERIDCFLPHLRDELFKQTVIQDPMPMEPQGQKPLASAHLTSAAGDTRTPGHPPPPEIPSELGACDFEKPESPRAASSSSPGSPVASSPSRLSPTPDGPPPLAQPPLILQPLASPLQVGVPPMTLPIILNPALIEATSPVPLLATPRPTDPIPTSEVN

Compound: COC(=O)/C=C/c1ccccc1 [methyl cinnamate]
Experiment: log2 ratio of iodoacetamide-alkyne labeling of the cysteine site, DMSO over compound (competition); higher = stronger covalent engagement of the cysteine by the compound, active = 1 or more
Settings: 500 µM; treatment time 1 h; system: HEK293T cell lysate
Summary of the method: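 Electrophile (500 µM) or vehicle was added to HEK293T lysate (2 mg/mL) for 1 h at ambient temperature before iodoacetamide alkyne labelling (1 h) and click coupling to sCIP-TMT reagents. After pooling, overnight trypsin digestion at 37 °C, streptavidin enrichment and acid elution, peptides were measured by Orbitrap Eclipse LC-MS/MS with FAIMS and quantified in FragPipe. Each cysteine's log2 competition ratio compares mean control-channel with mean compound-channel reporter intensity, control over compound. Data came from duplicate channels across three replicates, excluding cysteines quantified in only one replicate.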

log2 ratio of iodoacetamide-alkyne labeling, inactive:
CCDC97 C17 (UniProt Q96F63) 0.233
MASTL C285 (UniProt Q96GX5) 0.361
TNPO1 C297 (UniProt Q92973) -0.261
UniProt Q96EY5_C231 0.38
OTUD5 C519 (UniProt Q96G74) 0.101
UniProt Q92786_C300 0.344
RAD50 C157 (UniProt Q92878) -0.108
FMC1 C68 (UniProt Q96HJ9) 0.0904
EFHD2 C172 (UniProt Q96C19) 0.092
NT5C3B C56 (UniProt Q969T7) 0.359
FAF2 C414 (UniProt Q96CS3) 0.00227
LRRC59 C59 (UniProt Q96AG4) 0.0193
GBF1 C661 (UniProt Q92538) 0.238
SMARCE1 C274 (UniProt Q969G3) 0.0768
MRPS27 C49 (UniProt Q92552) 0.0975

For reference, part of the list above:
log2 ratio of iodoacetamide-alkyne labeling, inactive:
LRRC59 C59 (UniProt Q96AG4) 0.0193
GBF1 C661 (UniProt Q92538) 0.238
